These are yes or no findings as the source states them, for the method shown. Binding seen in cells or lysates may run through a third protein. Sequences can lack the tags named with a protein.
Target: Myc-tagged centrin 4 (rat)
Experiment: co-IP; transfected HEK293T cells solubilized in IP buffer (20 mM Tris-HCl pH 7.4, 150 mM NaCl, 1% Triton X-100, 0.5% Na-deoxycholate, 0.1% SDS, 1 mM EDTA); 16 h at 4 °C with antibody-coated protein A/G sepharose beads; immunoblot

B1: GFP-rEag2 (protein, UniProt Q9EPI9 1-988)
chain: MPGGKRGLVAPQNTFLENIVRRSSESSFLLGNAQIVDWPVVYSNDGFCKLSGYHRADVMQKSSTCSFMYGELTDKKTIEKVRQTFDNYESNCFEVLLYKKNRTPVWFYMQIAPIRNEHEKVVLFLCTFKDITLFKQPIEDDSTKGWTKFARLTRALTNSRSVLQQLTPMNKTETVHKHSRLAEVLQLGSDILPQYKQEAPKTPPHIILHYCAFKTTWDWVILILTFYTAIMVPYNVSFKTKQNNIAWLVLDSVVDVIFLVDIVLNFHTTFVGPGGEVISDPKLIRMNYLKTWFVIDLLSCLPYDIINAFENVDEGISSLFSSLKVVRLLRLGRVARKLDHYLEYGAAVLVLLVCVFGLVAHWLACIWYSIGDYEVIDEVTNTIQIDSWLYQLALSIGTPYRYNTSAGIWEGGPSKDSLYVSSLYFTMTSLTTIGFGNIAPTTDVEKMFSVAMMMVGSLLYATIFGNVTTIFQQMYANTNRYHEMLNNVRDFLKLYQVPKGLSERVMDYIVSTWSMSKGIDTEKVLSICPKDMRADICVHLNRKVFNEHPAFRLASDGCLRALAVEFQTIHCAPGDLIYHAGESVDALCFVVSGSLEVIQDEEVVAILGKGDVFGDIFWKETTLAHACANVRALTYCDLHIIKREALLKVLDFYTAFANSFSRNLTLTCNLRKRIIFRKISDVKKEEEERLRQKNEVTLSIPVDHPVRKLFQKFKQQKELRNQGSAQSDPERSQLQVESRPLQNGASITGTSVVTVSQITPIQTSLAYVKTSETLKQNNRDAMELKPNGGAEPKCLKVNSPIRMKNGNGKGWLRLKNNMGAHEEKKEEWNNVTKAESMGLLSEDPKGSDSENSVTKNPLRKTDSCDSGITKSDLRLDKAGEARSPLEHSPSQADAKHPFYPIPEQALQTTLQEVKHELKEDIQLLSCRMTALEKQVAEILKLLSEKSVPQTSSPKPQIPLQVPPQIPCQDIFSVSRPESPESDKDEINF
- binding: no binding

Reference: article PMC4821352
